In paper doi:10.64898/2025.12.26.696631 one finds binding data, which are given here for one substance.

Sequences of proteins named here, by UniProt entry; tags and fusion partners are left off. Residues count along the entry.
UniProt Q9NZQ7, residues 19-290: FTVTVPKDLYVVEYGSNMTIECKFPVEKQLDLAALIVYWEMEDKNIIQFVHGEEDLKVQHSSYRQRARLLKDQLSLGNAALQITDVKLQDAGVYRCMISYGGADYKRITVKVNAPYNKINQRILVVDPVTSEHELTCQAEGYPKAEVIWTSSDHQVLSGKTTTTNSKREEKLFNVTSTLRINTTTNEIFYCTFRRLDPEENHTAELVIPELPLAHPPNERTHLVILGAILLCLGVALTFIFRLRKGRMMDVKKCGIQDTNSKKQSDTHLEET

These are yes or no findings as the source states them, for the method shown. Binding seen in cells or lysates may run through a third protein. Some entries that bind do so weakly or less than the wild type. Sequences can lack the tags named with a protein.

The experiment addresses T1, HA-tagged ZDHHC11 (UniProt Q9H8X9).
T1 sequence: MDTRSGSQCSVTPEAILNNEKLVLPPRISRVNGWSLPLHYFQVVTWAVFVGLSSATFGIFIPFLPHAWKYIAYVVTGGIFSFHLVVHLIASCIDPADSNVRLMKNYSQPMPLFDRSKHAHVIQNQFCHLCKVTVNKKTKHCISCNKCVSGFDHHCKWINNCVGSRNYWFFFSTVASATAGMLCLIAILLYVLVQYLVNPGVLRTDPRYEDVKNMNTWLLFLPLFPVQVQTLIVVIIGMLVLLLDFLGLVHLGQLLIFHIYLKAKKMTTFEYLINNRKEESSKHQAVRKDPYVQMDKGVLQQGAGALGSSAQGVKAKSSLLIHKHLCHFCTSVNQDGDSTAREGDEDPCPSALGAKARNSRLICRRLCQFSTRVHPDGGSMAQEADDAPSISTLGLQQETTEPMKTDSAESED
The experiment is described as follows: co-IP.

Consider “programmed cell death ligand 1 (PD-L1) (from UniProt Q9NZQ7 19-290)”, for which the binding entry was “binds”.
